What all share (test): co-IP
The target of assay [1] is ATF4 (human (endogenous in HeLa)) (UniProt P18848).
Assay [2] has as its target HDAC1 (human (endogenous in HeLa)) (UniProt Q13547).
The target of assay [3] is HDAC2 (human (endogenous in HeLa)) (UniProt Q92769).
Assay [4] deals with USF2 (human (endogenous in HeLa)) (UniProt Q15853).
Assay [5] concerns the target T1, XBP1s (human (endogenous in HeLa)) (UniProt P17861).
T1 sequence: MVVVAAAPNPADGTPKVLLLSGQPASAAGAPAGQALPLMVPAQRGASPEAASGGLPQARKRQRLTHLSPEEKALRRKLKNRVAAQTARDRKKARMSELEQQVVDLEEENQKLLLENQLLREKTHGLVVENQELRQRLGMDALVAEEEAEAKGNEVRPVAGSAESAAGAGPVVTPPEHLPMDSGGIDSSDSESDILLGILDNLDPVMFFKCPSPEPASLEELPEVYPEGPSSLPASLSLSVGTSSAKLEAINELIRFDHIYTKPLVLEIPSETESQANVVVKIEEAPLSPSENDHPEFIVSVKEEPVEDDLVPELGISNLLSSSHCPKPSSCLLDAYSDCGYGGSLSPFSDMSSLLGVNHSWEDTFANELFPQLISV

Sequences of proteins named here, by UniProt entry; tags and fusion partners are left off.
UniProt P18848: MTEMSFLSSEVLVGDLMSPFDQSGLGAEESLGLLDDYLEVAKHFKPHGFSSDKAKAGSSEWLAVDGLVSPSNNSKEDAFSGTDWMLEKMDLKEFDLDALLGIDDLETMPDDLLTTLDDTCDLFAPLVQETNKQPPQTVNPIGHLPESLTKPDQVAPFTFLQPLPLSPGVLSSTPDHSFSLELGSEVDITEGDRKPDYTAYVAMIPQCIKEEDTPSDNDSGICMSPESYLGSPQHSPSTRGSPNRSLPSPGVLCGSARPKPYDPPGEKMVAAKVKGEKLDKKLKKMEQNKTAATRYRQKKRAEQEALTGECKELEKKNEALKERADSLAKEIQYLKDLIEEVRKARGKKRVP
UniProt Q13547: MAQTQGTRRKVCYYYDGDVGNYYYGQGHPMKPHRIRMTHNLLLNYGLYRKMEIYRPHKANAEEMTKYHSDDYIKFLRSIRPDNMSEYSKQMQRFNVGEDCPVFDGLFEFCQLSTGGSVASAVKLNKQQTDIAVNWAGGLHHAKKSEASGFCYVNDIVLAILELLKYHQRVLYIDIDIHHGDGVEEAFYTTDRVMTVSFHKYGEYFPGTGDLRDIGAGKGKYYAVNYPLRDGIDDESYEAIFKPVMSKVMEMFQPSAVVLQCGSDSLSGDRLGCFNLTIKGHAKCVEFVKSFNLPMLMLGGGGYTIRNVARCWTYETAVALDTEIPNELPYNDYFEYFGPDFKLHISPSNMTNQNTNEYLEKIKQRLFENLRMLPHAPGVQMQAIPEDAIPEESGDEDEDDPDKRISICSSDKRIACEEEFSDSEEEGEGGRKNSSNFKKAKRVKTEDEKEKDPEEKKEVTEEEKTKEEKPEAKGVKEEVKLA
UniProt Q92769: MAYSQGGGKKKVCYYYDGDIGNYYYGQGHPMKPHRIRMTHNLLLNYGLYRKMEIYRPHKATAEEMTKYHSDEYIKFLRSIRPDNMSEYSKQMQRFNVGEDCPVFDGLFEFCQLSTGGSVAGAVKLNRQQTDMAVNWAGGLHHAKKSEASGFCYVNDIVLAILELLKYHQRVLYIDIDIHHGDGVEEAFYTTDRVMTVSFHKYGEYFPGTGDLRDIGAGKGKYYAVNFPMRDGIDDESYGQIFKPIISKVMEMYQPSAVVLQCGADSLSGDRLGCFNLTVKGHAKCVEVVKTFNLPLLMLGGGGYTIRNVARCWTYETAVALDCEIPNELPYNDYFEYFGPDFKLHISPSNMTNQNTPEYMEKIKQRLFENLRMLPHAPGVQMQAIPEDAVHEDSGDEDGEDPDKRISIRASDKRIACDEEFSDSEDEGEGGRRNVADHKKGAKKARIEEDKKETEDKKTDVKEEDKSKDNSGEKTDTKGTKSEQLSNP
UniProt Q15853: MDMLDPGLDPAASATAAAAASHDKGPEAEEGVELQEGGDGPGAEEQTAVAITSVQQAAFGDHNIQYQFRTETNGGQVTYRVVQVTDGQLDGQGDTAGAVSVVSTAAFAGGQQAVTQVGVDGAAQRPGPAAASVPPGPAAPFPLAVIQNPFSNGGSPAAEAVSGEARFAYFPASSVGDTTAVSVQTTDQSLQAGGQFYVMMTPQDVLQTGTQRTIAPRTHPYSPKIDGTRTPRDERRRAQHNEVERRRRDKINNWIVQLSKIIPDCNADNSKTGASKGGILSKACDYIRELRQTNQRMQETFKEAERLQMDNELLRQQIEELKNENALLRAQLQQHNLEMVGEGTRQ

Assay [6] has as its target p97/VCP (human (endogenous in HeLa)) (UniProt P55072).
Assay [7] has as its target ATF4 (human (endogenous in HeLa)) (UniProt P18848). This is another data set of the same source.
Assay [8] has as its target T1, XBP1s (human (endogenous in HeLa)). This is another data set of the same source.
The target of assay [9] is p97/VCP (human (endogenous in HeLa)) (UniProt P55072). The source holds these as a separate data set.

Where two headings read alike, the source gives them in different places. Results are given in words; binding and its absence hold for the method and conditions named. In cells and extracts the contact can be indirect. Some binding calls cover weakened binding; strength is not graded here.

On to p97/VCP (from UniProt P55072 1-806), for which the binding entry in assay [1], in assay [2], in [3], in assay [4] and in assay [5] was “binds” each time.
For HDAC1 (from UniProt Q13547 1-482), the binding result in assay [1], in assay [4], in [5] and in assay [6] was “binds” in each case.

B1: ING2 (protein, UniProt Q9H160 1-280)
chain: MLGQQQQQLYSSAALLTGERSRLLTCYVQDYLECVESLPHDMQRNVSVLRELDNKYQETLKEIDDVYEKYKKEDDLNQKKRLQQLLQRALINSQELGDEKIQIVTQMLELVENRARQMELHSQCFQDPAESERASDKAKMDSSQPERSSRRPRRQRTSESRDLCHMANGIEDCDDQPPKEKKSKSAKKKKRSKAKQEREASPVEFAIDPNEPTYCLCNQVSYGEMIGCDNEQCPIEWFHFSCVSLTYKPKGKWYCPKCRGDNEKTMDKSTEKTKKDRRSR
Take B1: the results for the binding entry in assay [7], in [8] and in assay [9] were “no binding”, “binds” and “binds”, respectively.

The values above are taken from publication doi:10.1101/2021.02.24.432555.
